The record followed here is PubChem BioAssay AID2685 (National Center for Advancing Translational Sciences (NCATS), 2010).

This experiment is described as follows: qHTS Assay for Lipid Storage Modulators in Drosophila S3 Cells.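 For cell number change: cells counted by Cell Tracker Red CMTPX staining in the red channel.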 The conditions noted are these: BODIPY lipid droplet fluorescence, 18-24 h; for cell number change: measured here: cell count max response, cells fed with added oleic acid. The gist of the method: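 Drosophila S3 cells loaded with oleic acid (400 uM, as added) and compounds at several concentrations; lipid droplets imaged by 488-nm laser-scanning cytometry, 500–530 nm intensity and object ratio to cell channel. Percent activity normalized to 20 uM Triacsin C.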
(In general: Quantitative high-throughput screening tests each substance at several concentrations.)

[1] abbreviates: measured here: lipid fluorescence (Fed channel) AC50, cells fed with added oleic acid.
The mark [2] stands for this setting: measured here: cell number channel AC50, cells fed with added oleic acid.

Structures are written as SMILES. Some of the results follow. Shown are side measurements of this screen, not its main read-out; they come without a call. Compounds called inactive in the main read-out are mostly missing here. Words in brackets tell the shape of the fitted curve; partial curves, single points and poor fits give uncertain potencies.

The AC50 is the concentration giving half of the maximal activity seen. The low end stands for activity at low concentration, the high end for activity only at high concentration. On to `O=C(NCc1cccnc1)C1CCCCN1S(=O)(=O)c1ccc(F)cc1` (stereo not drawn), for which the cell number change was -25.6%. In addition, under setting [1], the AC50 was 32.6 µM [falling, single point].

Consider `Cc1ccc(OCC(=O)N/N=C/c2cc([N+](=O)[O-])ccc2N2CCCCC2)cc1`, for which the cell number change worked out at 6.3%. For the same compound, the AC50 under setting [1] was 1.46 µM [rising, full curve].

With `CN(C)CCN(C(=O)c1ccc2c(c1)OCCO2)c1nc2cc3c(cc2s1)OCO3`, the cell number change was determined as 41.6%. Besides, under setting [2], the AC50 is 4.61 µM [rising, partial curve]. The AC50 under setting [1] was 2.31 µM [rising, full curve].

As for `N#Cc1cnc(NN)nc1`, the cell number change is -4.69%.

Consider `O=[N+]([O-])c1cc([N+](=O)[O-])c2c(=Nc3ccccc3)n(-c3ccccc3)n(O)c2c1`, for which the cell number change is -27.7%. In addition, the AC50 under setting [1] was 0.116 µM [falling, full curve].

Turning to `CCC(C)NC(=O)CSC1=Nc2ccccc2C2=NC(CC(=O)NCc3ccc(F)cc3)C(=O)N12` (stereo not drawn), the cell number change was 2.06%. Further, the AC50 under setting [1] is 0.146 µM [rising, full curve].

`CCN1C(=O)[C@H]2[C@H]3[C@H](O)[C@H](O)C/C(=N\OC[C@@H](C)[C@H](OCc4ccccc4)C(C)C)[C@@H]3CC[C@H]2C1=O`: the cell number change is -46.9%. Moreover, the AC50 under setting [2] is 29.1 µM [falling, single point]. In addition, under setting [1], the AC50 is 29.1 µM [falling, single point].

As to `COc1ccc(NC(=O)Nc2cc3oc4ccccc4c3cc2OC)cc1`, the cell number change was -36.8%. Under setting [2], the AC50 was 7.31 µM [falling, full curve]. Besides, the AC50 under setting [1] was 7.31 µM [falling, partial curve, poor fit].

As for `O=C(CSc1ccc2nnc(-c3ccccc3)n2n1)NCc1ccc2c(c1)OCO2`, the AC50 under setting [2] is 2.59 µM [rising, partial curve, poor fit].

With `CCC(OC(=O)c1ccco1)C(=O)NCc1ccco1` (stereo not drawn), the cell number change was -29.1%. Further, the AC50 under setting [2] was 0.184 µM [falling, full curve, poor fit]. Further, under setting [1], the half-maximal activity concentration (AC50) was 5.8 µM [falling, single point].

As to `COC(=O)c1cc(NC(=O)CC2CCCC2)cc(C(=O)OC)c1`, the cell number change is -16.7%. Also, the AC50 under setting [2] was 0.00517 µM [falling, full curve, poor fit].

In the case of `Cc1sc2nc(COC(=O)c3c(F)cccc3F)[nH]c(=O)c2c1C`, the cell number change stood at 22.6%. Also, the AC50 under setting [1] is 20.6 µM [rising, single point].

On to `CS(=O)(=O)Nc1ccc(-c2cc(/C=C3\SC(N)=NC3=O)c[nH]c2=O)cc1`, for which the cell number change turned out to be 24%. Besides, the AC50 under setting [1] is 29.1 µM [rising, single point].

As for `COc1cc(C2=NC(CO)(CO)CO2)cc(OC)c1OC`, the cell number change was -29%. The AC50 under setting [1] is 25.9 µM [falling, single point].

On to `C/C(=N\Nc1ccc([N+](=O)[O-])cc1)c1ccc(C#N)cc1`, for which the cell number change turned out to be 14.7%. For the same compound, under setting [2], the AC50 is 6.51 µM [rising, single point]. The AC50 under setting [1] is 2.91 µM [rising, partial curve, poor fit].

For `CC1=Nc2cc(C(=O)NCC3CCCO3)ccc2Sc2ccc(C)cc21` (stereo not drawn), the cell number change is -22.6%. In addition, the AC50 under setting [1] was 23.1 µM [rising, single point].

Take `O=C(NC(NC1CCS(=O)(=O)C1)C(Cl)(Cl)Cl)c1cccc(Cl)c1` (stereo not drawn): the cell number change stood at 24.7%. In addition, under setting [1], the AC50 is 4.11 µM [rising, partial curve, poor fit].

Consider `CCN(CC)Cc1c(O)ccc2c(=O)c(-c3ccccc3OC)coc12`, for which the cell number change was -21.1%.

For `Cc1ccc2cc(C(c3nnnn3Cc3ccccc3)N3CCN(c4ccccc4)CC3)c(=O)[nH]c2c1` (stereo not drawn), the cell number change was determined as 41.1%. The AC50 under setting [2] was 14.6 µM [rising, single point]. The AC50 under setting [1] was 23.1 µM [rising, partial curve].

Take `COc1ccccc1N1CCN(C2CCCN(Cc3ccc(Cl)cc3)C2)CC1` (stereo not drawn): the cell number change is 1.1%.

`CCOC(=O)C1=C(C)NC(C)=C(C(=O)OCC)C1C(=O)OCC(=O)N(CC)C1CCS(=O)(=O)C1` (stereo not drawn): the cell number change was 91.9%. The AC50 under setting [1] is 2.91 µM [falling, single point].

With `O=C(Nc1ccc(Cc2ccncc2)cc1)c1ccco1`, the cell number change was -9.13%. Moreover, the AC50 under setting [1] was 16.4 µM [rising, single point].

With `Cc1cccc(NC(=O)c2cccnc2)c1C`, the cell number change is 41.1%. Moreover, the AC50 under setting [2] is 29.1 µM [rising, single point].

For the compound `O=C(COc1ccccc1Cl)NCCNC(=O)c1ccccn1`, the cell number change is -17.1%. Besides, the AC50 under setting [1] is 3.26 µM [falling, full curve].

`Cc1ccc(NC(=O)CCSc2nnc(Cc3ccccc3)o2)cc1`: the cell number change was -5.01%. Further, the concentration at half-maximal activity (AC50) under setting [1] is 0.206 µM [falling, full curve, poor fit].

On to `CC(=O)c1cccc(NC(=O)CN2C(=O)c3ccccc3C2=O)c1`, for which the cell number change amounted to 1.57%. Also, the AC50 under setting [1] was 14.6 µM [rising, partial curve].

With `CC1(c2nnc(-c3ccc(F)cc3)o2)CC(c2ccccc2)=NO1` (stereo not drawn), the cell number change came out at 25.7%. Also, under setting [1], the AC50 is 7.31 µM [rising, partial curve, poor fit].

As to `COc1ccccc1C(=O)Nc1c2c(nn1-c1cccc(C)c1C)CS(=O)C2` (stereo not drawn), the cell number change was 27.2%.

On to `O=C(NC1CCS(=O)(=O)C1)c1cn(-c2ccccc2)nc1-c1ccccc1` (stereo not drawn), for which the cell number change was found to be 5.77%. Further, the AC50 under setting [1] was 29.1 µM [rising, single point].

As to `Cc1nnc(SCC2=C(C(=O)O)N3C(=O)C(NC(=O)COc4ccc(F)cc4)C3SC2)s1` (stereo not drawn), the cell number change turned out to be 2.2%. Besides, the AC50 under setting [1] was 0.13 µM [falling, full curve, poor fit].

Regarding `Cc1ccc(CNC(=O)CCCCCNc2nc(=S)[nH]c3ccccc23)cc1`, the AC50 under setting [1] was 6.51 µM [rising, single point].

`COCCN(CCOC)S(=O)(=O)c1ccc(C(=O)Nc2nc3c(s2)CCc2ccccc2-3)cc1`: the cell number change was -38.7%. Moreover, under setting [2], the half-maximal activity concentration (AC50) was 16.4 µM [falling, single point]. Further, the AC50 under setting [1] is 29.1 µM [falling, single point].

For `O=C(COC(=O)c1ccccc1NC(=O)c1ccco1)NCc1ccc2c(c1)OCO2`, the cell number change was -59.1%. Moreover, the AC50 under setting [2] was 16.4 µM [falling, single point]. Further, the AC50 under setting [1] is 0.116 µM [rising, single point].

Regarding `Cc1cc(C(=O)N/N=C/c2ccc(-c3ccccc3Cl)o2)n[nH]1`, the cell number change is -38.2%. Also, the AC50 under setting [2] was 13 µM [falling, single point].

As to `COC(=O)CCCn1nc(NC(=O)COc2ccc(F)cc2)cc1C`, the cell number change came out at 2.86%.

On to `COc1cccc(C(C(=O)NCC2CCCO2)N(C(=O)Cn2nnc3ccccc32)c2ccccc2C(C)=O)c1OC` (stereo not drawn), for which the cell number change is 1.28%. Further, the AC50 under setting [1] was 0.116 µM [rising, single point].
